From PubChem BioAssay AID602296 (Broad Institute, 2012)
Among all 2,000 compounds or so, about 190 (9.5%) were called active. Inconclusive results, whose numbers are uncertain, are shown with a selection of clear calls.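 How the source made its calls: active means fitted activation curve crossing 40% at a concentration no higher than the sample's top valid tested dose; inconclusive means flat fitted curve at 30% to 70% activation, or poor curve fit; inactive means signal decrease, flat curve within 30%, or the rest.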

Assay: sustained heat shock response element induction – cell-based, mouse, luciferase, cherry-pick, dose, confirmation (AID 602296);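 further: test compounds applied by themselves with no MG132 co-treatment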
Details: NIH3T3-HGL HSF-1 response element luciferase, 48 h; at 26 µM (top of the series) unless noted
With CN(c1ccccc1)c1ccc(/C=C/[N+](=O)[O-])cc1 the activation was inconclusive: -99.5%. For O=C1CCCC2=C1C(c1ccc(Cl)cc1)n1c(s/c(=C\c3ccc4ccncc4c3)c1=O)=N2 (stereo unspecified), the activation was inconclusive: 32.7%. For COc1ccc(N=Nc2ccc(CO)cc2)cc1, the activation was inconclusive: -30.7%. With COc1cccc(OCc2ccc(Cl)cc2)c1C#N the activation was inconclusive: -93.4%. For Cc1ccc(S(=O)(=O)NNC(=O)c2sc3nc(C)cc(C)c3c2-n2cccc2)cc1, the activation was inactive: -31.5%. For Cc1c(Cl)c(C(=O)NC2CCCC2)nn1C, the activation was inconclusive: 6.85%. With O=C1N/C(=C\c2ccc(O)cc2)C(O)=C1C=NCc1ccccc1 the activation was inactive: -52%. With CN1CCc2nc(SCc3ccc(Cl)cc3)c(C#N)c(-c3cccs3)c2C1 the activation was inconclusive: 105%. For O=C(/C=C/c1ccc(Cl)cc1Cl)N(Cc1ccccc1)C1CCS(=O)(=O)C1 (stereo unspecified), the activation was inactive: -14.7%. In the case of Cc1cc(C)cc(Cn2ncc(Cl)c(Cl)c2=O)c1, the activation is reported as inconclusive: -102%. In the case of O=C(CCCc1ccccc1)Nc1ccc2c(c1)OCCO2, the activation is reported as inconclusive: -31.8%. In the case of CCCCCCCCCCCC(=O)c1c(O)cccc1O, the activation is reported as inactive: -66.3%. For Cc1ccc(/C=C/C(=O)N2CC(C)CC(C)C2)o1 (stereo unspecified), the activation was inconclusive: -44.2%. With Cc1nc2c(=O)n(C)c(=O)n(C)c2nc1Cl the activation was inconclusive: -83.1%. With CC(C)(C)Cc1nc2ccccc2n1CCc1ccccc1 the activation was inactive: -18.4%. With CCOC(=O)C(C)Oc1cc(Cl)c(C=O)cc1OC (stereo unspecified) the activation was inconclusive: 13.7%. For N#CCc1c(C#N)c(N)nc(N2CCN(S(=O)(=O)c3ccccc3F)CC2)c1C#N, the activation was inconclusive: -29.1%. With Cc1ccc(-n2cc3ccc([N+](=O)[O-])cc3n2)cc1 the activation was inconclusive: -90.7%. In the case of CC(=O)c1ccc(N2CCN(C(=O)c3n[nH]c4ccccc34)CC2)cc1, the activation is reported as inactive: -5.87%. In the case of Cc1cc(NC(=O)c2cc(C)on2)n(-c2ccccc2)n1, the activation is reported as inactive: -10.5%. With CC12CN(C(=S)Nc3ccccc3)CC(C)(CN(C(=S)Nc3ccccc3)C1)C2=O the activation was inactive: 5.01%. With CCOC(=O)C1=C(c2ccccc2)NC(N)=NC1c1ccc(OCc2ccc(Cl)cc2)c(OC)c1 (stereo unspecified) the activation was inconclusive: -101%. In the case of Cc1ccc(-c2cnc3cc(C)nn3c2)cc1, the activation is reported as inconclusive: -75.4%. For COc1ccc(C(CC(=O)c2ccc(C)cc2)C(C#N)C#N)cc1OC (stereo unspecified), the activation was inconclusive: -96.7%. In the case of N#CC1=C(c2ccccc2)/C(=C/c2ccccc2)OC1=O, the activation is reported as inconclusive: 317%. For Cc1ccc(-c2cc(C(=O)N3N=C(C(F)F)CC3(O)C(F)F)c3ccccc3n2)cc1C (stereo unspecified), the activation was inconclusive: -70.8%.
